Experimental data taken from patent publication EP4477665A1 (AffyXell Therapeutics Co., Ltd., dated 2024).
These are yes or no findings as the source states them, for the method shown. Some results given as binding are weak or reduced against the parent protein; the word gives no strength.

T1: human CD40L (hCD40L antigen) (human, UniProt P29965 113-261, limits assumed)
T1 sequence (looked up): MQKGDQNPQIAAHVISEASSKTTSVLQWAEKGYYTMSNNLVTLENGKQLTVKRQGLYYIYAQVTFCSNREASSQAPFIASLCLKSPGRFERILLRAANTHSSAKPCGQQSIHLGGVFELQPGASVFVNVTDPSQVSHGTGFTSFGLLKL


Target: T1, human CD40L (hCD40L antigen)
Assay: ELISA, bacterial lysate on immobilized human CD40L, anti-Myc detection

Binder | binding
clone 267 (designed binder) MIPGGLSEAKPATPEIQEIVDKVKPQLEEKTGETYGKLEAVQYKTQVVWEWALLLEYGTNYYIKVRAGDNKYMHLKVFKSLHHPWQPAKQEDLVLTGYQVDKNKDDELTGF | binds
clone 270 (designed binder) MIPGGLSEAKPATPEIQEIVDKVKPQLEEKTGETYGKLEAVQYKTQVVLDGLYHVNSGTNYYIKVRAGDNKYMHLKVFKSLFYYYRSEPTEDLVLTGYQVDKNKDDELTGF | binds
clone 258 (designed binder) MIPGGLSEAKPATPEIQEIVDKVKPQLEEKTGETYGKLEAVQYKTQVVNDPYFQSFSGTNYYIKVRAGDNKYMHLKVFKSLPYWYREPENEDLVLTGYQVDKNKDDELTGF | binds
clone 231 (designed binder) MIPGGLSEAKPATPEIQEIVDKVKPQLEEKTGETYGKLEAVQYKTQVVYYQIITWWQGTNYYIKVRAGDNKYMHLKVFKSLGIRKKQQQREDLVLTGYQVDKNKDDELTGF | binds
clone 230 (designed binder) MIPGGLSEAKPATPEIQEIVDKVKPQLEEKTGETYGKLEAVQYKTQVVHYYVHYNDQGTNYYIKVRAGDNKYMHLKVFKSLWGENLFAKWEDLVLTGYQVDKNKDDELTGF | binds
clone 264 (designed binder) MIPGGLSEAKPATPEIQEIVDKVKPQLEEKTGETYGKLEAVQYKTQVVSWKQWHNYLGTNYYIKVRAGDNKYMHLKVFKSLYPDGDLILYEDLVLTGYQVDKNKDDELTGF | binds
clone 248 (designed binder) MIPGGLSEAKPATPEIQEIVDKVKPQLEEKTGETYGKLEAVQYKTQVVYDELYHEKAGTNYYIKVRAGDNKYMHLKVFKSLEYKFRNLEEDLVLTGYQVDKNKDDELTGF | binds
clone 280 (designed binder) MIPGGLSEAKPATPEIQEIVDKVKPQLEEKTGETYGKLEAVQYKTQVVQTKLVTWWWGTNYYIKVRAGDNKYMHLKVFKSLLGEQYIDVDEDLVLTGYQVDKNKDDELTGF | binds
clone 263 (designed binder) MIPGGLSEAKPATPEIQEIVDKVKPQLEEKTGETYGKLEAVQYKTQVVTASLYWNYAGTNYYIKVRAGDNKYMHLKVFKSLFYYRGPQPVEDLVLTGYQVDKNKDDELTGF | binds
clone 257 (designed binder) MIPGGLSEAKPATPEIQEIVDKVKPQLEEKTGETYGKLEAVQYKTQVVPEYQPQPKAGTNYYIKVRAGDNKYMHLKVFKSLFHFRKPQDREDLVLTGYQVDKNKDDELTGF | binds
clone 268 (designed binder) MIPGGLSEAKPATPEIQEIVDKVKPQLEEKTGETYGKLEAVQYKTQVVGDSYWEYVSGTNYYIKVRAGDNKYMHLKVFKSLPYRWRPDHAEDLVLTGYQVDKNKDDELTGF | binds
clone 249 (designed binder) MIPGGLSEAKPATPEIQEIVDKVKPQLEEKTGETYGKLEAVQYKTQVVSWYYPKNVLGTNYYIKVRAGDNKYMHLKVFKSLEDFIAADDDEDLVLTGYQVDKNKDDELTGF | binds
clone 275 (designed binder) MIPGGLSEAKPATPEIQEIVDKVKPQLEEKTGETYGKLEAVQYKTQVVSWIEISNQLGTNYYIKVRAGDNKYMHLKVFKSLYYGNTSILIEDLVLTGYQVDKNKDDELTGF | binds
clone 229 (designed binder) MIPGGLSEAKPATPEIQEIVDKVKPQLEEKTGETYGKLEAVQYKTQVVQYKIITWWSGTNYYIKVRAGDNKYMHLKVFKSLVYKNKRGGHEDLVLTGYQVDKNKDDELTGF | binds
clone 254 (designed binder) MIPGGLSEAKPATPEIQEIVDKVKPQLEEKTGETYGKLEAVQYKTQVVNWNQIDNPLGTNYYIKVRAGDNKYMHLKVFKSLNKDWEDQIIEDLVLTGYQVDKNKDDELTGF | binds
clone 272 (designed binder) MIPGGLSEAKPATPEIQEIVDKVKPQLEEKTGETYGKLEAVQYKTQVVWEDHWNYQYGTNYYIKVRAGDNKYMHLKVFKSLELYSNQIVWEDLVLTGYQVDKNKDDELTGF | binds
clone 266 (designed binder) MIPGGLSEAKPATPEIQEIVDKVKPQLEEKTGETYGKLEAVQYKTQVVQNNWYLSNYGTNYYIKVRAGDNKYMHLKVFKSLVEERWGLWVEDLVLTGYQVDKNKDDELTGF | binds
clone 251 (designed binder) MIPGGLSEAKPATPEIQEIVDKVKPQLEEKTGETYGKLEAVQYKTQVVSWVRGTNQLGTNYYIKVRAGDNKYMHLKVFKSLEPDWPDFLIEDLVLTGYQVDKNKDDELTGF | binds

Now from value to binder:

binding | Binder
binds | clone 259 (designed binder) MIPGGLSEAKPATPEIQEIVDKVKPQLEEKTGETYGKLEAVQYKTQVVHQDDVAWQSGTNYYIKVRAGDNKYMHLKVFKSLEYGWYHLPYEDLVLTGYQVDKNKDDELTGF
binds | clone 250 (designed binder) MIPGGLSEAKPATPEIQEIVDKVKPQLEEKTGETYGKLEAVQYKTQVVFLEWHFWEWGTNYYIKVRAGDNKYMHLKVFKSLDSQEFPSHLEDLVLTGYQVDKNKDDELTGF
binds | clone 265 (designed binder) MIPGGLSEAKPATPEIQEIVDKVKPQLEEKTGETYGKLEAVQYKTQVVQVHLDNSPLGTNYYIKVRAGDNKYMHLKVFKSLQFGEIIWWEEDLVLTGYQVDKNKDDELTGF
binds | clone 271 (designed binder) MIPGGLSEAKPATPEIQEIVDKVKPQLEEKTGETYGKLEAVQYKTQVVHAPAPVQAIGTNYYIKVRAGDNKYMHLKVFKSLPYWYRPNRPEDLVLTGYQVDKNKDDELTGF
binds | clone 278 (designed binder) MIPGGLSEAKPATPEIQEIVDKVKPQLEEKTGETYGKLEAVQYKTQVVKIGQLPSRVGTNYYIKVRAGDNKYMHLKVFKSLYWYRNPADREDLVLTGYQVDKNKDDELTGF
binds | clone 252 (designed binder) MIPGGLSEAKPATPEIQEIVDKVKPQLEEKTGETYGKLEAVQYKTQVVWRKLLSWWKGTNYYIKVRAGDNKYMHLKVFKSLILNPKSWNFEDLVLTGYQVDKNKDDELTGF
binds | clone 279 (designed binder) MIPGGLSEAKPATPEIQEIVDKVKPQLEEKTGETYGKLEAVQYKTQVVAWHTKNNSIGTNYYIKVRAGDNKYMHLKVFKSLETKLAHEDIEDLVLTGYQVDKNKDDELTGF
binds | clone 262 (designed binder) MIPGGLSEAKPATPEIQEIVDKVKPQLEEKTGETYGKLEAVQYKTQVVLSSIWQDVAGTNYYIKVRAGDNKYMHLKVFKSLLYQFRKEPVEDLVLTGYQVDKNKDDELTGF
binds | clone 274 (designed binder) MIPGGLSEAKPATPEIQEIVDKVKPQLEEKTGETYGKLEAVQYKTQVVRVDWWLPEVGTNYYIKVRAGDNKYMHLKVFKSLPYQYRKDPKEDLVLTGYQVDKNKDDELTGF
binds | clone 269 (designed binder) MIPGGLSEAKPATPEIQEIVDKVKPQLEEKTGETYGKLEAVQYKTQVVGQKWWQHKIGTNYYIKVRAGDNKYMHLKVFKSLHSNAWNLQHEDLVLTGYQVDKNKDDELTGF
binds | clone 261 (designed binder) MIPGGLSEAKPATPEIQEIVDKVKPQLEEKTGETYGKLEAVQYKTQVVVDQVWSENAGTNYYIKVRAGDNKYMHLKVFKSLPYLWRKHAVEDLVLTGYQVDKNKDDELTGF
binds | clone 255 (designed binder) MIPGGLSEAKPATPEIQEIVDKVKPQLEEKTGETYGKLEAVQYKTQVVFWVGLHNQLGTNYYIKVRAGDNKYMHLKVFKSLYYNGDNTQIEDLVLTGYQVDKNKDDELTGF
binds | clone 260 (designed binder) MIPGGLSEAKPATPEIQEIVDKVKPQLEEKTGETYGKLEAVQYKTQVVKGYFHTVEAGTNYYIKVRAGDNKYMHLKVFKSLTYHFRTDLNEDLVLTGYQVDKNKDDELTGF
binds | clone 273 (designed binder) MIPGGLSEAKPATPEIQEIVDKVKPQLEEKTGETYGKLEAVQYKTQVVSWRYKSNQLGTNYYIKVRAGDNKYMHLKVFKSLYKDWVVNPPEDLVLTGYQVDKNKDDELTGF
binds | clone 276 (designed binder) MIPGGLSEAKPATPEIQEIVDKVKPQLEEKTGETYGKLEAVQYKTQVVSLGQAETWAGTNYYIKVRAGDNKYMHLKVFKSLFKYRHQQDKEDLVLTGYQVDKNKDDELTGF
binds | clone 253 (designed binder) MIPGGLSEAKPATPEIQEIVDKVKPQLEEKTGETYGKLEAVQYKTQVVPKSHQTNEQGTNYYIKVRAGDNKYMHLKVFKSLWNENHFSVWEDLVLTGYQVDKNKDDELTGF
binds | clone 256 (designed binder) MIPGGLSEAKPATPEIQEIVDKVKPQLEEKTGETYGKLEAVQYKTQVVFTQPFNEPIGTNYYIKVRAGDNKYMHLKVFKSLYWDDKVGYYEDLVLTGYQVDKNKDDELTGF
